# Measured values published in the supplement of paper PMC10338343.
# ± gives the standard deviation. The list shows a part of the results, in another mix than the full data. Many entries were measured with a wide error.
# Test system: MILI (PIWIL2) piRISC loaded with Kctd7 piRNA (26 nt)
# Experiment: pre-steady-state target cleavage rate (min^-1); MIWI and MILI are mouse PIWI proteins and EfPiwi is from a freshwater sponge; tags in brackets are library labels; higher = faster piRNA-guided slicing of the target
# Conditions: guide: Kctd7 piRNA 5'p-UGUUAAUCUCUCAGAGAAGGUGACAG; auxiliary factor: 500 nM mouse GTSF1
# Method: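 Cleave-'n-Seq: a library of target RNAs (target site embedded in constant flanks, ACAGCATTCCGCGTTAGTGATATCCG... 5' flank; DNA-blocked outside the site) at 0.1 nM was incubated with 1 nM active mouse MILI or MIWI piRISC (synthetic 5'-monophosphorylated piRNA guide) with or without 500 nM mouse GTSF1 at 33 °C for 1 min to 16 h. Uncleaved targets were sequenced and normalised to non-target controls, and the pooled three trials were fitted to a burst-and-steady-state model to give the pre-steady-state cleavage rate (min^-1; k3 is constrained to at most 1e-4). Sequence is the target site only; target names encode pairing extent (gX:gY) and contiguous / 1-mismatch / 2-mismatch / bulge geometry. Fits with R² ≤ 0 are excluded.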
row,Sequence,pre-steady-state target cleavage rate
1,UAGUGACAGUGGAAGAGAGAGAGGAUUAACA,0.000225 ± 0.025
2,UAGUGACAGUGGUUGUCUGAGUGAUUAACA,0.00115 ± 0.0059
3,UAGUGACAGUGGAAGAGUGAGCAGAUUAACA,0.000247 ± 0.025
4,UAGUGACAGUGGUUGUCUGAGAGAUUAUCA,0.002 ± 0.0043
5,UAGUGACAGUCCUUGUCUGAGAGAUUAAGA,0.00045 ± 0.019
6,UAGUGACAGUCCUUCUCUGAGAGAAAUAGA,0.000114 ± 0.016
7,UAGUGACAGUGGUUCUCUGAGAGAUUAUACA,0.000725 ± 0.0088
8,UAGUCUGUCACCUUCUCUGACUCAUUAUGA,0.00123 ± 0.0045
9,UAGUGACAGUGGUUCUGUGACAGAUUAACA,0.000293 ± 0.022
10,UAGUGACAGUGGUUCUCAGAGAGUUUAACA,0.000551 ± 0.013
11,UAGUGACAGUGGAAGUCUGAGAGAUUGACA,0.000749 ± 0.0061
12,UAGUGAGUCACCUUCUCUGAGAGAUUACACA,0.187 ± 0.038
13,UAGUGAGUCACCUUCUCUGAGAAAUUAACA,0.132 ± 0.027
14,UAGUGACAGUGGAACUCUGAGAGAUUGACA,0.000432 ± 0.025
15,UAGUGACACACCUUCUCUGACUGAUUAACA,0.00109 ± 0.0072
16,UAGUGACAGUGGAAGUCUGAGAGAUUAUCA,0.000115 ± 0.019
17,UAGUGACAGUCCUUCUCGAGAGAUUAACA,0.00334 ± 0.0046
18,UAGUGACAGUGGUUCUCUGUCUCUAAUUGA [g12:g18:cont:t1A],0.000133 ± 0.027
19,UAGUGACAGUGGAAGAGUGAGAGAUUUUCA,0.000234 ± 0.035
20,UAGUCUGUCUCCUUCUCUGAGAGAUUAUGA,0.0111 ± 0.0041
21,UAGUGUGUCACCUACUCUGAGAGAUUUUGA,0.0414 ± 0.016
22,UAGUGUGUCACCUUCUCUGAGAGAUUCACA,0.239 ± 0.049
23,UAGUGACUCACCUUCUCUGAGAGAUUAAACA,0.251 ± 0.035
24,UAGUGACAGACCUUCUCUCUGAGAUUAAGA,0.000531 ± 0.015

row,Sequence,pre-steady-state target cleavage rate
1,UAGUGAGUGUCCUUCUCUGAGAGAUAUUGA,0.000691 ± 0.0074
2,UAGUGACAGUGGUACUCUGAGAGAUUAACA,0.000403 ± 0.0099
3,UAGUGACAGACCUUCUCUGGAGAUUAACA,0.00288 ± 0.0042
4,UAGUGACAGUGCUAGUCUGAGAGAUUAACA,0.00192 ± 0.0045
5,UAGUGACAGACCUUCUCCUGAGAGAUUAACA,0.00145 ± 0.0069
6,UAGUGACAGUGGAAGUCUGAGAGAUUAACC [g2:g15:cont:t1C],0.000685 ± 0.0066
7,UAGUGAGUCACCUUGUCUGAGAGAUAUUGA,0.00132 ± 0.0082
8,UAGUGACAGUGGUUCUCUGAGAGCUUAACA,0.000865 ± 0.0061
9,UAGUGACAGUGGAAGACAGAGACAUUAACA,0.000102 ± 0.06
10,UAGUGACAGUGCUUCUCUGAUGAGAUUAACA,0.000534 ± 0.0058
11,UAGUGACUCACCUUCUCUGAGUGAAUAACA,0.00121 ± 0.0077
12,UAGUGACAGUGGAUCUUUGAGAGAUUAACA,0.00031 ± 0.0099
13,UAGUGACAGUGGAUCUCUGAGUGAUUAACA,0.000112 ± 0.029
14,UAGUGACAGAGCUUCUCUGAGAGAUUAUGA,0.00158 ± 0.0075
15,UAGUCUGUCUCCUUCUCUGAGAGAUUUUGA,0.00342 ± 0.0038
16,UAGUGACAGUCCUUCUCUGAGUGAUUAUCA,0.00057 ± 0.0066
17,UAGUGAGUCACCUUCUCUGAGAGAUUCAACA,0.279 ± 0.054
18,UAGUGACAGUCCUUCUCUCAGAGAAUAACA,0.000691 ± 0.011
19,UAGUGACACACCUUCUCUCAGACAUUAACA,0.0383 ± 0.011
20,UAGUGACAGUGGAAGACUGUCAGAUUAACA,0.000366 ± 0.028
21,UAGUGACUCACCAUCUCUGAGAGAUUUUGA,0.00175 ± 0.0052
22,UAGUGUGUGUCCUUCUCUGAGAGAUUAUGA,0.00211 ± 0.006
23,UAGUGAGUCACCUUCUCUGAGACAUUAUCA,0.00196 ± 0.0078
24,UAGUGACAGUGCUUCUCACAGAGAUUAACA,0.00247 ± 0.0045

# Reformatted with bars between the fields: part of the list above.
row | Sequence | pre-steady-state target cleavage rate
3 | UAGUGACAGUGGAAGAGUGAGCAGAUUAACA | 0.000247 ± 0.025
18 | UAGUGACAGUGGUUCUCUGUCUCUAAUUGA [g12:g18:cont:t1A] | 0.000133 ± 0.027
11 | UAGUGACUCACCUUCUCUGAGUGAAUAACA | 0.00121 ± 0.0077
14 | UAGUGACAGAGCUUCUCUGAGAGAUUAUGA | 0.00158 ± 0.0075
18 | UAGUGACAGUCCUUCUCUCAGAGAAUAACA | 0.000691 ± 0.011

# Further results.

row,Sequence,pre-steady-state target cleavage rate
1,UAGUGACAGACCUUCUCUGAGAGAUAACA,0.00185 ± 0.0063
2,UAGUGUGUCACCUUUCUGAGAGAUUAACA,0.0596 ± 0.013
3,UAGUGUGUGUGCUUCUCUGAGAGAUAUUGA,0.000443 ± 0.014
4,UAGUCUGUCACCUUCUCUGACUCAUAUUGA,0.000819 ± 0.0071
5,UAGUGACACACCUUCUGACUCUCUAAUUGA [g15:g22:cont:t1A],0.00112 ± 0.0069
6,UAGUGAGUACCUUCUCUGAGAGAUUAACA,0.113 ± 0.014
7,UAGUGACAGUGGAUCUCUGAGACUAUAACA,0.000799 ± 0.021
8,UAGUGAGUCAGGAUCUCUGAGAGAUAUUGA,0.000326 ± 0.015
9,UAGUCUGUCACCUUCUCUGACAGUUUAACA,0.00252 ± 0.0046
10,UAGUGACAGUCCUUCUCUGAGAGAAAUACA,0.000372 ± 0.014
11,UAGUGUGUCACCAAGUCUGAGAGAUUAUGA,0.000584 ± 0.01
12,UAGUGACAGUGGUUCUCUGAGAGAUUAAGA,0.000248 ± 0.015
13,UAGUCUGUCACCUUCUCUGACUGAUUAACA,0.00248 ± 0.0042
14,UAGUGACAGUGGAACUCUGAGAUGAUUAACA,0.000223 ± 0.027
15,UAGUGACAGUGGUUCUCUGAGAGAAUUAACA,0.000613 ± 0.012
16,UAGUGACUCACCUUCUCGAGAGAUUAACA,0.02 ± 0.0065
17,UAGUGAGUCACCUUCCUCUGAGAGAUUAACA,0.148 ± 0.019
18,UAGUGACAGACCUUCUCUGAGAGUUUUACA,0.00143 ± 0.0097
19,UAGUCUGUCACGUUCUCUGAGUGAUUAACA,0.00118 ± 0.004
20,UAGUGACAGUGCUUCUCUCUGAGAUUAAGA,0.000323 ± 0.014
21,UAGUGACAGUGGUUCUCUGAGAAAUUAACA,0.000119 ± 0.037
22,UAGUGACAGUCCUUCUGUGACAGAUUAACA,0.00187 ± 0.0045
23,UAGUCUGUCACCUUGACUGAGAGAUUUUGA,0.000521 ± 0.015
